The test system of assay [1] is SARS-CoV-2 -1 PRF reporter mCherry-FSE-GFP(-1). The assay can be described thus: mCherry (red) intensity as percent of control; higher = higher upstream reporter expression. The conditions noted are these: 10 µM; 24 h; HEK293T.
Assay [2] shares this test system. Nature of the assay: percent effect, decrease of GFP/mCherry ratio (-1 PRF reporter) relative to controls; higher = stronger frameshift inhibition. The conditions noted are these: 10 µM; 24 h; HEK293T.

“And” between values parts separate entries of the source, which are not always exact repeats. Equal entries are not always repeated. Structures can show the parent of a compound that is named as a salt. The list shows a part of the results. Single values are uncertain here, since repeats match poorly.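 HEK293T cells were given each compound shortly before transfection with a reporter in which red mCherry is followed by the SARS-CoV-2 frameshift element and then GFP in the −1 frame, so GFP appears only after frameshifting.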

In the case of `COC(=O)[C@@H](N)Cc1ccc(O)c(O)c1` [melevodopa], in assay [1], the mCherry amounted to 84.8%. Moreover, the percent effect in assay [2] is -0.265%.
For `c1ccc2[nH]c(-c3cscn3)nc2c1` [tiabendazole], in that order: 107% and -0.228%.
For `Nc1nc(=O)n([C@H]2C[C@H](O)[C@@H](CO)O2)cc1I` [ibacitabine], in that order: 114% and 2.68%.
For `CN(C)CC/C=C1\c2ccccc2CSc2ccccc21` [Dosulepin], in that order: 96.3% and -0.102%.
In assay [1], `CC(=O)OC[C@H]1O[C@@H](n2ccc(=O)[nH]c2=O)[C@H](OC(C)=O)[C@@H]1OC(C)=O` [Uridine triacetate] displayed a mCherry of 96.6%. In addition, the percent effect in assay [2] is -5.19%.
For `CN(C)CC/C=C1/c2ccccc2COc2ccc(CC(=O)O)cc21` [Olopatadine], in that order: 101% and 0.0519%.
For `C[C@]12CC[C@@H](O)C[C@@H]1CC[C@H]1[C@@H]3CC[C@H](C(=O)CO)[C@@]3(C)CC(=O)[C@@H]12` [alfadolone], in that order: 92.2% and -1.72%.
With `CC[C@@H](NC(C)C)[C@@H](O)c1ccc(O)c2[nH]c(=O)ccc12` [Procaterol·HCl], the mCherry in assay [1] was found to be 89.1%. For the same compound, the percent effect in assay [2] is -1.45%.
The corresponding values for `CN1CCc2cccc3c2[C@H]1Cc1ccc(O)c(O)c1-3` [(R)-(-)-Apomorphine·HCl] are 68.7% and 1.47%.
The corresponding values for `N#C/C(=C1/SCC(c2ccccc2Cl)S1)n1ccnc1` (configuration not stated) [lanoconazole] are 95.3% and -6.29%.
The corresponding values for `CN(C)c1ccc(O)c2c1C[C@H]1C[C@H]3[C@H](N(C)C)C(=O)C(C(N)=O)=C(O)[C@@]3(O)C(=O)C1=C2O` are 111% and 1.86%.
Regarding `CC(NCCCCc1ccccc1)C(O)c1ccc2c(c1)CCS2` (configuration not stated) [tibalosin], the mCherry in assay [1] was 54.5%. In assay [2], the percent effect is -6.89%.
The corresponding values for `NS(=O)(=O)c1cc2c(cc1Cl)CN(C1CCCCC1)C2=O` [clorexolone] are 137% and -9.04%.
The corresponding values for `O=C(O)c1cc(=O)c2c(OCC(O)COc3cccc4oc(C(=O)O)cc(=O)c34)cccc2o1` [Disodium Cromoglycate] are 98.3% and 0.271%.
Consider `O=C(CCNNC(=O)c1ccncc1)NCc1ccccc1` [nialamide], for which the mCherry in assay [1] was 94.9% and 91.1%. Besides, in assay [2], the percent effect was 2.05% and -0.74%.
With `O=S(=O)(O)NC1CCCCC1`, in assay [1], the mCherry came out at 141%. Moreover, in assay [2], the percent effect worked out at 12.9%.
For `CN1C[C@@H]2C[C@H]1CN2c1cc2c(cc1F)c(=O)c(C(=O)O)cn2C1CC1` [danofloxacin], in that order: 99.8% and -1.32%.
Consider `O=C(c1cccnc1)N1CCOCC1` [nicopholine], for which the mCherry in assay [1] worked out at 115%. Moreover, the percent effect in assay [2] came to 2.64%.
Take `CCCCCC(=O)O[C@]1(C(C)=O)CC[C@H]2[C@@H]3CCC4=CC(=O)CC[C@]4(C)[C@H]3CC[C@@]21C` [hydroxyprogesterone caproate]: the mCherry in assay [1] is 81.4% and 87.1%. Further, the percent effect in assay [2] was -1.4% and -6.54%.
Take `CN[C@@H]1CCc2[nH]c3ccc(C(N)=O)cc3c2C1` [frovatriptan]: the mCherry in assay [1] was 99.1%. Further, the percent effect in assay [2] was -1.45%.
The corresponding values for `Nc1ccn(C[C@@H](CO)OCP(=O)(O)O)c(=O)n1` [Vistide] are 105% and -3.96%.
For `C=C1c2cccc(O)c2C(O)=C2C(=O)[C@]3(O)C(O)=C(C(N)=O)C(=O)[C@@H](N(C)C)[C@@H]3[C@@H](O)[C@H]12` [metacycline], in that order: 61% and -1.49%.
In assay [1], `O=C(O)COc1ccc(C(=O)c2cccs2)c(Cl)c1Cl` [tienilic acid] displayed a mCherry of 78.3%. The percent effect in assay [2] is -0.927%.
`NC1CCN(c2c(F)cc3c(=O)c(C(=O)O)cn(C4CC4)c3c2Cl)C1` (configuration not stated) [Clinafloxacin] returned a mCherry in assay [1] of 61.4%. Also, the percent effect in assay [2] was -4.23%.
The corresponding values for `CC[C@H]1OC(=O)[C@H](C)[C@@H](O[C@H]2C[C@@](C)(OC)[C@@H](O)[C@H](C)O2)[C@H](C)[C@@H](O[C@@H]2O[C@H](C)C[C@H](N(C)C)[C@H]2O)[C@](C)(O)C[C@@H](C)/C(=N/OC)[C@H](C)[C@@H](O)[C@]1(C)O` [lexithromycin] are 80.9% and -2.64%.
For `CC1(C)O[C@@H]2C[C@H]3[C@@H]4C[C@H](F)C5=CC(=O)C=C[C@]5(C)[C@H]4[C@@H](O)C[C@]3(C)[C@]2(C(=O)CO)O1`, in that order: 89.8% and -3.99%.
For `C/N=C(/NC#N)NCCSCc1csc(NC(=N)N)n1` [Tiotidine], in that order: 107% and 2.88%.
On to `Cc1cc(O)cc(C)c1Cl` [chloroxylenol], for which, in assay [1], the mCherry came out at 93.6%. In assay [2], the percent effect amounted to 0.397%.
The corresponding values for `NS(=O)(=O)c1ccc(C(=O)O)cc1` [carzenide] are 107% and -3.72%.
In turn, `CCN(CC)CCOC(=O)C(c1ccccc1)c1ccccc1` gave a mCherry in assay [1] of 108%. Besides, the percent effect in assay [2] was -2.75%.
In assay [1], `Nc1nc(F)nc2c1ncn2[C@@H]1O[C@H](CO)[C@@H](O)[C@@H]1O` [fludarabine] returned a mCherry of 108%. The percent effect in assay [2] is -1.51%.
The compound `NS(=O)(=O)c1cc2c(cc1Cl)NCNS2(=O)=O` [hydrochlorothiazide] yielded a mCherry in assay [1] of 115%. The percent effect in assay [2] is -10.3%.
For `COc1ccc2c(c1)C(=O)N(CCc1ccc(S(=O)(=O)NC(=O)NC3CCCCC3)cc1)C(=O)C2(C)C` [gliquidone], in that order: 89.9% and -5.91%.
For `OC(CCN1CCCCC1)(c1ccccc1)c1ccccc1` [pridinol], in that order: 108% and 0.043%.
The corresponding values for `Cc1cc2nc3c(=O)[nH]c(=O)nc-3n(C[C@H](O)[C@H](O)[C@H](O)COP(=O)(O)O)c2cc1C` are 86.3% and -3.47%.
Compound `O=c1oc2cc(O)ccc2s1` [tioxolone] came in with a mCherry in assay [1] of 99.8%. Also, the percent effect in assay [2] is -0.613%.
